# Source: the supplement of paper PMC8728848
# The other results are listed elsewhere or left out.
# B1: AT1G77380(17) (Arabidopsis thaliana), Q39134 (protein)
# chain: MVQNHQTVLAVDMPQTGGSKYLDDDGKNKRTGSVWTASAHIITAVIGSGVLSLAWATAQLGWLAGPVVMLLFSAVTYFTSSLLAACYRSGDPISGKRNYTYMDAVRSNLGGVKVTLCGIVQYLNIFGVAIGYTIASAISMMAIKRSNCFHKSGGKDPCHMNSNPYMIAFGLVQILFSQIPDFDQLWWLSILAAVMSFTYSSAGLALGIAQVVVNGKVKGSLTGISIGAVTETQKIWRTFQALGDIAFAYSYSIILIEIQDTVKSPPSEEKTMKKATLVSVSVTTMFYMLCGCMGYAAFGDLSPGNLLTGFGFYNPYWLLDIANAAIVIHLIGAYQVYCQPLFAFIEKQASIQFPDSEFIAKDIKIPIPGFKPLRLNVFRLIWRTVFVIITTVISMLLPFFNDVVGLLGALGFWPLTVYFPVEMYIAQKKIPRWSTRWVCLQVFSLGCLVVSIAAAAGSIAGVLLDLKSYKPFRSEY
# Key:
# Assay in all cases: glycan array binding signal (z-score within array); higher = stronger binding
# Details in all cases: glycan notation: IUPAC condensed, linker removed
# [1] = target: Neu5Ac(a2-3)Gal(b1-4)GlcNAc(b1-3)[Neu5Ac(a2-3)Gal(b1-4)GlcNAc(b1-6)]GalNAc
# Summary of the method: (§1)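 Columns mapping to the same glycan were averaged after glycan names were converted to IUPAC-condensed notation. The data come from 3228 arrays in the Consortium for Functional Glycomics database, limited to those with an available protein sequence. Binding is reported as a within-array Z-score averaged across arrays of one protein sequence and across linkers.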
# [2] = target: Neu5Ac(a2-3)Gal(b1-4)GlcNAc(b1-6)GalNAc
# Summary of the method: as §1
# [3] = target: Neu5Ac(a2-3)Gal(b1-4)GlcNAc(b1-6)[Gal(b1-3)]GalNAc
# Summary of the method: as §1
# [4] = target: Neu5Ac(a2-3)Gal(b1-4)GlcNAc(b1-6)[Neu5Ac(a2-3)Gal(b1-3)]GalNAc
# Summary of the method: as §1
# [5] = target: Neu5Ac(a2-3)Gal(b1-4)GlcNAc6S
# Summary of the method: as §1
# [6] = target: Neu5Ac(a2-3)Gal(b1-4)[Fuc(a1-3)]GlcNAc
# Summary of the method: as §1
# [7] = target: Neu5Ac(a2-3)Gal(b1-4)[Fuc(a1-3)]GlcNAc(b1-2)Man
# Summary of the method: as §1
# [8] = target: Neu5Ac(a2-3)Gal(b1-4)[Fuc(a1-3)]GlcNAc(b1-3)Gal
# Summary of the method: as §1
# [9] = target: Neu5Ac(a2-3)Gal(b1-4)[Fuc(a1-3)]GlcNAc(b1-3)Gal(b1-4)GlcNAc
# Summary of the method: as §1
# [10] = target: Neu5Ac(a2-3)Gal(b1-4)[Fuc(a1-3)]GlcNAc(b1-3)Gal(b1-4)[Fuc(a1-3)]GlcNAc(b1-3)Gal(b1-4)[Fuc(a1-3)]GlcNAc
# Summary of the method: as §1
# [11] = target: Neu5Ac(a2-3)Gal(b1-4)[Fuc(a1-3)]GlcNAc(b1-3)GalNAc
# Summary of the method: as §1
# [12] = target: Neu5Ac(a2-3)Gal(b1-4)[Fuc(a1-3)]GlcNAc(b1-6)[Gal(b1-3)]GalNAc
# Summary of the method: as §1
# [13] = target: Neu5Ac(a2-3)Gal(b1-4)[Fuc(a1-3)]GlcNAc(b1-6)[Neu5Ac(a2-3)Gal(b1-3)]GalNAc
# Summary of the method: as §1
# [14] = target: Neu5Ac(a2-3)Gal(b1-4)[Fuc(a1-3)]GlcNAc6S
# Summary of the method: as §1
# [15] = target: Neu5Ac(a2-3)Gal6S(b1-4)GlcNAc
# Summary of the method: as §1
# [16] = target: Neu5Ac(a2-3)Gal6S(b1-4)[Fuc(a1-3)]GlcNAc
# Summary of the method: as §1
# Neu5Ac(a2-3)GalNAc = target: Neu5Ac(a2-3)GalNAc
# Summary of the method: as §1
# [17] = target: Neu5Ac(a2-3)GalNAc(b1-4)GlcNAc
# Summary of the method: as §1
# [18] = target: Neu5Ac(a2-3)[GalNAc(b1-4)]Gal(b1-4)Glc
# Summary of the method: as §1
# [19] = target: Neu5Ac(a2-3)[GalNAc(b1-4)]Gal(b1-4)GlcNAc
# Summary of the method: as §1
# [20] = target: Neu5Ac(a2-3)[GalNAc(b1-4)]Gal(b1-4)GlcNAc(b1-3)GalNAc
# Summary of the method: as §1
# [21] = target: Neu5Ac(a2-3)[Neu5Ac(a2-6)]GalNAc
# Summary of the method: as §1
# Neu5Ac(a2-6)Gal = target: Neu5Ac(a2-6)Gal
# Summary of the method: as §1
# [22] = target: Neu5Ac(a2-6)Gal(b1-3)GlcNAc(b1-3)[Gal(b1-4)GlcNAc(b1-6)]Gal(b1-4)Glc
# Summary of the method: as §1
# Neu5Ac(a2-6)Gal(b1-4)Glc = target: Neu5Ac(a2-6)Gal(b1-4)Glc
# Summary of the method: as §1
# [23] = target: Neu5Ac(a2-6)Gal(b1-4)GlcNAc
# Summary of the method: as §1
# [24] = target: Neu5Ac(a2-6)Gal(b1-4)GlcNAc(b1-2)Man
# Summary of the method: as §1
# [25] = target: Neu5Ac(a2-6)Gal(b1-4)GlcNAc(b1-2)Man(a1-3)Man(b1-4)GlcNAc(b1-4)GlcNAc
# Summary of the method: as §1
# [26] = target: Neu5Ac(a2-6)Gal(b1-4)GlcNAc(b1-2)Man(a1-3)[Gal(b1-4)GlcNAc(b1-2)Man(a1-6)]Man(b1-4)GlcNAc(b1-4)GlcNAc
# Summary of the method: as §1
# [27] = target: Neu5Ac(a2-6)Gal(b1-4)GlcNAc(b1-2)Man(a1-3)[GlcNAc(b1-2)Man(a1-6)]Man(b1-4)GlcNAc(b1-4)GlcNAc
# Summary of the method: as §1
# [28] = target: Neu5Ac(a2-6)Gal(b1-4)GlcNAc(b1-2)Man(a1-3)[GlcNAc(b1-4)][Neu5Ac(a2-6)Gal(b1-4)GlcNAc(b1-2)Man(a1-6)]Man(b1-4)GlcNAc(b1-4)GlcNAc
# Summary of the method: as §1
# [29] = target: Neu5Ac(a2-6)Gal(b1-4)GlcNAc(b1-2)Man(a1-3)[Man(a1-6)]Man(b1-4)GlcNAc(b1-4)GlcNAc
# Summary of the method: as §1
# [30] = target: Neu5Ac(a2-6)Gal(b1-4)GlcNAc(b1-2)Man(a1-3)[Neu5Ac(a2-3)Gal(b1-4)GlcNAc(b1-2)Man(a1-6)]Man(b1-4)GlcNAc(b1-4)GlcNAc
# Summary of the method: as §1
# [31] = target: Neu5Ac(a2-6)Gal(b1-4)GlcNAc(b1-2)Man(a1-3)[Neu5Ac(a2-6)Gal(b1-4)GlcNAc(b1-2)Man(a1-6)]Man(b1-4)GlcNAc(b1-4)GlcNAc
# Summary of the method: as §1
# [32] = target: Neu5Ac(a2-6)Gal(b1-4)GlcNAc(b1-2)Man(a1-3)[Neu5Ac(a2-6)Gal(b1-4)GlcNAc(b1-2)Man(a1-6)]Man(b1-4)GlcNAc(b1-4)[Fuc(a1-6)]GlcNAc
# Summary of the method: as §1
# [33] = target: Neu5Ac(a2-6)Gal(b1-4)GlcNAc(b1-2)Man(a1-6)Man(b1-4)GlcNAc(b1-4)GlcNAc
# Summary of the method: as §1
# [34] = target: Neu5Ac(a2-6)Gal(b1-4)GlcNAc(b1-2)Man(a1-6)[Gal(b1-4)GlcNAc(b1-2)Man(a1-3)]Man(b1-4)GlcNAc(b1-4)GlcNAc
# Summary of the method: as §1
# [35] = target: Neu5Ac(a2-6)Gal(b1-4)GlcNAc(b1-2)Man(a1-6)[GlcNAc(b1-2)Man(a1-3)]Man(b1-4)GlcNAc(b1-4)GlcNAc
# Summary of the method: as §1
# [36] = target: Neu5Ac(a2-6)Gal(b1-4)GlcNAc(b1-2)Man(a1-6)[Man(a1-3)]Man(b1-4)GlcNAc(b1-4)GlcNAc
# Summary of the method: as §1
# [37] = target: Neu5Ac(a2-6)Gal(b1-4)GlcNAc(b1-2)[Neu5Ac(a2-6)Gal(b1-4)GlcNAc(b1-4)]Man(a1-3)[GlcNAc(b1-4)][Neu5Ac(a2-6)Gal(b1-4)GlcNAc(b1-2)[Neu5Ac(a2-6)Gal(b1-4)GlcNAc(b1-6)]Man(a1-6)]Man(b1-4)GlcNAc(b1-4)GlcNAc
# Summary of the method: as §1
# [38] = target: Neu5Ac(a2-6)Gal(b1-4)GlcNAc(b1-2)[Neu5Ac(a2-6)Gal(b1-4)GlcNAc(b1-4)]Man(a1-3)[GlcNAc(b1-4)][Neu5Ac(a2-6)Gal(b1-4)GlcNAc(b1-4)Man(a1-6)]Man(b1-4)GlcNAc(b1-4)GlcNAc
# Summary of the method: as §1
# [39] = target: Neu5Ac(a2-6)Gal(b1-4)GlcNAc(b1-2)[Neu5Ac(a2-6)Gal(b1-4)GlcNAc(b1-6)]Man(a1-6)[Neu5Ac(a2-6)Gal(b1-4)GlcNAc(b1-2)Man(a1-3)][GlcNAc(b1-4)]Man(b1-4)GlcNAc(b1-4)GlcNAc
# Summary of the method: as §1
# [40] = target: Neu5Ac(a2-6)Gal(b1-4)GlcNAc(b1-3)Gal(b1-3)GlcNAc
# Summary of the method: as §1
# [41] = target: Neu5Ac(a2-6)Gal(b1-4)GlcNAc(b1-3)Gal(b1-4)GlcNAc
# Summary of the method: as §1
# [42] = target: Neu5Ac(a2-6)Gal(b1-4)GlcNAc(b1-3)Gal(b1-4)GlcNAc(b1-2)Man(a1-3)[Neu5Ac(a2-6)Gal(b1-4)GlcNAc(b1-3)Gal(b1-4)GlcNAc(b1-2)Man(a1-6)]GalNAc
# Summary of the method: as §1
binder,measurement,setting,value
B1,glycan array binding signal (z-score),[1],-0.779
same,glycan array binding signal (z-score),[2],0.228
same,glycan array binding signal (z-score),[3],1.54
same,glycan array binding signal (z-score),[4],-0.772
same,glycan array binding signal (z-score),[5],-0.786
same,glycan array binding signal (z-score),[6],-0.134
same,glycan array binding signal (z-score),[7],-0.386
same,glycan array binding signal (z-score),[8],-0.719
same,glycan array binding signal (z-score),[9],-0.19
same,glycan array binding signal (z-score),[10],-0.4
same,glycan array binding signal (z-score),[11],2.48
same,glycan array binding signal (z-score),[12],-0.175
same,glycan array binding signal (z-score),[13],-0.285
same,glycan array binding signal (z-score),[14],-0.6
same,glycan array binding signal (z-score),[15],0
same,glycan array binding signal (z-score),[16],-0.844
same,glycan array binding signal (z-score),Neu5Ac(a2-3)GalNAc,0.674
same,glycan array binding signal (z-score),[17],0.486
same,glycan array binding signal (z-score),[18],-0.752
same,glycan array binding signal (z-score),[19],-0.431
same,glycan array binding signal (z-score),[20],-0.317
same,glycan array binding signal (z-score),[21],1.61
same,glycan array binding signal (z-score),Neu5Ac(a2-6)Gal,2.3
same,glycan array binding signal (z-score),[22],-0.985
same,glycan array binding signal (z-score),Neu5Ac(a2-6)Gal(b1-4)Glc,0.059
same,glycan array binding signal (z-score),[23],-0.582
same,glycan array binding signal (z-score),[24],1.03
same,glycan array binding signal (z-score),[25],-0.792
same,glycan array binding signal (z-score),[26],-0.735
same,glycan array binding signal (z-score),[27],-0.477
same,glycan array binding signal (z-score),[28],0.883
same,glycan array binding signal (z-score),[29],-0.896
same,glycan array binding signal (z-score),[30],-0.533
same,glycan array binding signal (z-score),[31],0.247
same,glycan array binding signal (z-score),[32],-0.502
same,glycan array binding signal (z-score),[33],-0.081
same,glycan array binding signal (z-score),[34],-0.965
same,glycan array binding signal (z-score),[35],-0.321
same,glycan array binding signal (z-score),[36],-0.006
same,glycan array binding signal (z-score),[37],-0.506
same,glycan array binding signal (z-score),[38],-0.156
same,glycan array binding signal (z-score),[39],0.421
same,glycan array binding signal (z-score),[40],-0.399
same,glycan array binding signal (z-score),[41],-0.821
same,glycan array binding signal (z-score),[42],-0.683

# Another view of some results above:
binder	measurement	setting	value
B1	glycan array binding signal (z-score)	[7]	-0.386
same	glycan array binding signal (z-score)	[21]	1.61
same	glycan array binding signal (z-score)	Neu5Ac(a2-6)Gal(b1-4)Glc	0.059
